This assay addresses human E-cadherin extracellular domain (human) (UniProt P12830). The assay is described as follows: flow cell adhesion assay; glass capillaries coated with human E-cadherin extracellular domain; 4T1 cells (parental, shP120, WT or S/T6A p120-catenin re-expressed) dissociated with 0.2 mM EDTA, attached 10 min in HBSS, then washed at increasing flow rates in 30 s increments; percent of cells still attached counted; only the target purified.

Sequences of proteins named here, by UniProt entry; tags and fusion partners are left off. Residues count along the entry.
UniProt P12830, residues 155-709: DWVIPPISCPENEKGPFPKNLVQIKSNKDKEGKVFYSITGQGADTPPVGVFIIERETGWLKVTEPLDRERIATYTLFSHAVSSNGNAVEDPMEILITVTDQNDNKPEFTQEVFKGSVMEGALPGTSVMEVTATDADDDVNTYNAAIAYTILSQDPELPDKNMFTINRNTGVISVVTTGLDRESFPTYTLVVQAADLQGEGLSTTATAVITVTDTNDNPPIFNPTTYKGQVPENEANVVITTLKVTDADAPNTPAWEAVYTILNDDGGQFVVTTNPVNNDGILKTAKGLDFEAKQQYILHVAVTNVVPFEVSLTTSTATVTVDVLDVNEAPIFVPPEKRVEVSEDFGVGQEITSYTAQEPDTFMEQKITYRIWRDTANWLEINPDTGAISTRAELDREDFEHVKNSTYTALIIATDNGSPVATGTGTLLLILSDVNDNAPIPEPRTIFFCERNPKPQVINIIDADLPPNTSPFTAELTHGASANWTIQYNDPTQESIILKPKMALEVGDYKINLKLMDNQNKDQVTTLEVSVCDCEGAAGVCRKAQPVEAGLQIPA
UniProt P09803, residues 157-884: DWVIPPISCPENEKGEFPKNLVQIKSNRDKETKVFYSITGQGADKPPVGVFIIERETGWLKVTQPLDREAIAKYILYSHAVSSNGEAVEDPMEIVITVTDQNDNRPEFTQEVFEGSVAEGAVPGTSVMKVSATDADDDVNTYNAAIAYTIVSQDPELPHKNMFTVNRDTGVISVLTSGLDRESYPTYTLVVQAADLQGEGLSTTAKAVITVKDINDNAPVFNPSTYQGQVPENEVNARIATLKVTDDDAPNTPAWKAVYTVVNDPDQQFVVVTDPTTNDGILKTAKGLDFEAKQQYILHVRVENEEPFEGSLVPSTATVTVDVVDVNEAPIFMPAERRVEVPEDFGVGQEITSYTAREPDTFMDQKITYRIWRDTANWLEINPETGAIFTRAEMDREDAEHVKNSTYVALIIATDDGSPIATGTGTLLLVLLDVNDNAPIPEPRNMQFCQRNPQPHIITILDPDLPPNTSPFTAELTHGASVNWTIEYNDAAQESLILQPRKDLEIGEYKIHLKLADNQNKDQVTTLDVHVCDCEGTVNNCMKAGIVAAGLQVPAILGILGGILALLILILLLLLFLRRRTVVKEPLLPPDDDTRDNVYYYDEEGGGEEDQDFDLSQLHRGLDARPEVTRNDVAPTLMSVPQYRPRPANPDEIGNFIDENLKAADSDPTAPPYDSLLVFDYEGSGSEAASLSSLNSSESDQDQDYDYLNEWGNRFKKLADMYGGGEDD

Results are given in words; binding and its absence hold for the method and conditions named. Some entries that bind do so weakly or less than the wild type.

On to “E-cadherin on the surface of 4T1 murine breast cancer cells (from UniProt P09803 157-884) (receptor)”, for which the binding result is “binds”.

Source of the values: article PMC7319294.
